From the supplement of paper PMC10849652
This is one part of the list.

Amino acid sequences for entries named in this document (tags omitted). A change or cut given only in a name is not applied to a line headed by its entry.
UniProt Q9NRD1: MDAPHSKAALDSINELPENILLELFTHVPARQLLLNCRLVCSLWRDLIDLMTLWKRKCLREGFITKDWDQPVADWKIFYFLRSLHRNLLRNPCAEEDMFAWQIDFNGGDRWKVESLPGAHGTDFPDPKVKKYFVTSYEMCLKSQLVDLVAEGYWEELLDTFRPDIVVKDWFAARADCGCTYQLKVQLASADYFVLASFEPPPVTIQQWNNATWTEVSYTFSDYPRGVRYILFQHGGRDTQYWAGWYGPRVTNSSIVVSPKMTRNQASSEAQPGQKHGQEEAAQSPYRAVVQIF
UniProt Q8NB91: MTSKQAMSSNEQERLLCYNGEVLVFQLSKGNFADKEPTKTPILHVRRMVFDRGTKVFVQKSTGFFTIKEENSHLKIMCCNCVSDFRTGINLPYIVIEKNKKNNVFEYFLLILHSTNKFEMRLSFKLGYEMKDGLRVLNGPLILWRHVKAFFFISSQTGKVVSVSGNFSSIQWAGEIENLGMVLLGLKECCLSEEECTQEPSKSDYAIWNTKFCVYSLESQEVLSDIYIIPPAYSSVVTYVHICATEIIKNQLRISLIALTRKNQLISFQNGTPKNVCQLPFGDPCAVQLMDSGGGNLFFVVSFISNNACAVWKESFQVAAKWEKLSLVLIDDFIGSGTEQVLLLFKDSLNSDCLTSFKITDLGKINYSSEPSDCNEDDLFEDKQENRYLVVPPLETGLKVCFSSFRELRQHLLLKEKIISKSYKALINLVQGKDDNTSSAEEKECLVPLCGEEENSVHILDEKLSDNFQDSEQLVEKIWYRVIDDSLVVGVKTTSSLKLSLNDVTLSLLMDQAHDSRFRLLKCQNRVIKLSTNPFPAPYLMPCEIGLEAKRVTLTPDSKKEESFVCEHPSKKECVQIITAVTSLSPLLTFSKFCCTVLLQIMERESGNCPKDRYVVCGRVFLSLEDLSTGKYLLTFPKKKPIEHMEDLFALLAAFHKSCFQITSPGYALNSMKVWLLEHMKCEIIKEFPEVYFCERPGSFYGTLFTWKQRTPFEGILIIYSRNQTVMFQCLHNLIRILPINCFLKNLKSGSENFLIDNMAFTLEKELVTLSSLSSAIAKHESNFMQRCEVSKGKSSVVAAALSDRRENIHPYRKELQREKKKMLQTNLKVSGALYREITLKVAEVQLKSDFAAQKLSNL
UniProt Q6P3S6: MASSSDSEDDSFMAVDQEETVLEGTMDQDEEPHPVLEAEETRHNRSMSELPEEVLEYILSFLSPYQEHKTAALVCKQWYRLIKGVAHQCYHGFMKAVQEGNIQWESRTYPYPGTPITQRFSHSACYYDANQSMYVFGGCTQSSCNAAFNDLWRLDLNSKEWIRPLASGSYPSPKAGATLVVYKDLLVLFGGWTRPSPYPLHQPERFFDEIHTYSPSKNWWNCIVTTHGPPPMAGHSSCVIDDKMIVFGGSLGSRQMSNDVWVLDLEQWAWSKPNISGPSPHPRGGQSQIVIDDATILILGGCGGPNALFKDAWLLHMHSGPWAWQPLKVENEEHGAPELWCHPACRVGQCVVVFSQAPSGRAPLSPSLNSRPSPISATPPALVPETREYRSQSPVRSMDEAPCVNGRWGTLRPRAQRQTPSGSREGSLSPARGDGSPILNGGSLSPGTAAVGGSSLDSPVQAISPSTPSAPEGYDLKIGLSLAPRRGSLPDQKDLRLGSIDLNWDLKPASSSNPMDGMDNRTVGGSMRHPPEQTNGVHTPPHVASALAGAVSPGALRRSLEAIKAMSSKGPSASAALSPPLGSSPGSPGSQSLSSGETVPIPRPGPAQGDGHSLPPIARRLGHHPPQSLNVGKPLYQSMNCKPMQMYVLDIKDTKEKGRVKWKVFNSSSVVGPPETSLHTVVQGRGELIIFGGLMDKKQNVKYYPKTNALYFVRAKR
UniProt P49327, whole entry, looked up: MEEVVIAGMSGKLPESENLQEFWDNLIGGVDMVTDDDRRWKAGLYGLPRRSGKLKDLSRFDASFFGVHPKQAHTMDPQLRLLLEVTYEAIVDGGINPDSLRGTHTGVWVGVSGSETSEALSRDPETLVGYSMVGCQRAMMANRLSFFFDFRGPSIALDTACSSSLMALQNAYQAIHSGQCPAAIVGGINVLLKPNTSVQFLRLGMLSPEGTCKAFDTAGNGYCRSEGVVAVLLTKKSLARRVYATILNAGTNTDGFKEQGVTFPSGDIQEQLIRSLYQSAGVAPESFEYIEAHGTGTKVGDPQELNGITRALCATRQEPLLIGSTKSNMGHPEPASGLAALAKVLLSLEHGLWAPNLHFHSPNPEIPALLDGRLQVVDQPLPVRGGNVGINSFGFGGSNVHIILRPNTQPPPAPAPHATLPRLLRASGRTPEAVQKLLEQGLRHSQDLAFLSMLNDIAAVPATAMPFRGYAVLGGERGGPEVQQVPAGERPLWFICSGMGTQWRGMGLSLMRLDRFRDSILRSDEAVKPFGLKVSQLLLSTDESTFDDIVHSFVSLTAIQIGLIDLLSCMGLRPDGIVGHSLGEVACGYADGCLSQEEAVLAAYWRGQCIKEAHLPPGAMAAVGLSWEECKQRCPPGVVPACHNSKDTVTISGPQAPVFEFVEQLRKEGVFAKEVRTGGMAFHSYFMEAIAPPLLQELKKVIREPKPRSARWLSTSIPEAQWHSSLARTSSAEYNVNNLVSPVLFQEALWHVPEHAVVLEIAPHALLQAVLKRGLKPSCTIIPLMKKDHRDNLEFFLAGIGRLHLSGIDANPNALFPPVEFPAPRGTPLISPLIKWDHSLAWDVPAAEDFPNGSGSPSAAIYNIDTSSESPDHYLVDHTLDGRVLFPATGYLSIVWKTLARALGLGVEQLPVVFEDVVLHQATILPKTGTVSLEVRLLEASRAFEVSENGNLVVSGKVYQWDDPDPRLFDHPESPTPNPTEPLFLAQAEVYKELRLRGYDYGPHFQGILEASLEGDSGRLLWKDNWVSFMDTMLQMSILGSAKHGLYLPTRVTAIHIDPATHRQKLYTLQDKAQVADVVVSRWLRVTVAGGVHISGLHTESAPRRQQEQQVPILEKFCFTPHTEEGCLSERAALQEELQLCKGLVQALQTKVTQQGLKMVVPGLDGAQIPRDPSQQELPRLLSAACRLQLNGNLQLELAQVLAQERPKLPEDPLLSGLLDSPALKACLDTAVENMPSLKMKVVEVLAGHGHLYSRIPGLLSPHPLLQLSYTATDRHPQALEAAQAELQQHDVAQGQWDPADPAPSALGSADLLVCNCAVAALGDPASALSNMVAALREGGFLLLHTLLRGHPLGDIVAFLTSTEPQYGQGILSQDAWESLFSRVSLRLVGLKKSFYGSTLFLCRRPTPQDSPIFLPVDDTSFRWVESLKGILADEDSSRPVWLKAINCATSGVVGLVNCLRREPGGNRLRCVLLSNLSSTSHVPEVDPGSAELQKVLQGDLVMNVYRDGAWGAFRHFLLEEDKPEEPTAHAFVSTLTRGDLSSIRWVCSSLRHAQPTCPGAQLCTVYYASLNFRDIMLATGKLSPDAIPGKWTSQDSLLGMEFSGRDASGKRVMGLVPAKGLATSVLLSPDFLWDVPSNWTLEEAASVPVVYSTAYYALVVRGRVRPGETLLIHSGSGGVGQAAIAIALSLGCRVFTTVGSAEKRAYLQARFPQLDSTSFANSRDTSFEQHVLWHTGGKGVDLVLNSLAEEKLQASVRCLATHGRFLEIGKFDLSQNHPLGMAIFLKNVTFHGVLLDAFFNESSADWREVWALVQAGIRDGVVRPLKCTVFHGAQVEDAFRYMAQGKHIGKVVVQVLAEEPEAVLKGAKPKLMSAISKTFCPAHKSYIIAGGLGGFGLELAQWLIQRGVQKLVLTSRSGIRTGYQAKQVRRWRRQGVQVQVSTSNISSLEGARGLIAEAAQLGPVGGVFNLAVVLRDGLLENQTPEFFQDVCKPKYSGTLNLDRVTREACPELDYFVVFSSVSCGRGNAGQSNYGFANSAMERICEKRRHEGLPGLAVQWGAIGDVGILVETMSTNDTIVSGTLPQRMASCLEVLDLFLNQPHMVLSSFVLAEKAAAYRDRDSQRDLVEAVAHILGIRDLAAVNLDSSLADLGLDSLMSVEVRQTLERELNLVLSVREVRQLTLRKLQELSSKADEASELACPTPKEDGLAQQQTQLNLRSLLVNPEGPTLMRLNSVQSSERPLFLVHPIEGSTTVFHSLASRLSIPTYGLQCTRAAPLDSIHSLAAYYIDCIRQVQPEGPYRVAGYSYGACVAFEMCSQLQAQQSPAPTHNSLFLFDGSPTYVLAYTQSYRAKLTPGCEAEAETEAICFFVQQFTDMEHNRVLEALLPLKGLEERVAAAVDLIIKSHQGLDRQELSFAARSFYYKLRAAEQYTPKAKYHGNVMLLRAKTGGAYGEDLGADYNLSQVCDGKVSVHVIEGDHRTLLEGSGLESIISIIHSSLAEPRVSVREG
UniProt Q17RN3: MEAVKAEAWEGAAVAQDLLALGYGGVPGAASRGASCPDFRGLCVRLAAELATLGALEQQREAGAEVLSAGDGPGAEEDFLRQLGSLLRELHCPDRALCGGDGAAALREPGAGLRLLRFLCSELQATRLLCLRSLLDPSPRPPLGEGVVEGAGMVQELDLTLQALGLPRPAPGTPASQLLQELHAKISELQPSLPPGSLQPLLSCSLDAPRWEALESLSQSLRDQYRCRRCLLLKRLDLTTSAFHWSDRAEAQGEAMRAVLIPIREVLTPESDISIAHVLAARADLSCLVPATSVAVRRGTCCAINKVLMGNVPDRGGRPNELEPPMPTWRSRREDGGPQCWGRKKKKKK
UniProt Q8NEZ5: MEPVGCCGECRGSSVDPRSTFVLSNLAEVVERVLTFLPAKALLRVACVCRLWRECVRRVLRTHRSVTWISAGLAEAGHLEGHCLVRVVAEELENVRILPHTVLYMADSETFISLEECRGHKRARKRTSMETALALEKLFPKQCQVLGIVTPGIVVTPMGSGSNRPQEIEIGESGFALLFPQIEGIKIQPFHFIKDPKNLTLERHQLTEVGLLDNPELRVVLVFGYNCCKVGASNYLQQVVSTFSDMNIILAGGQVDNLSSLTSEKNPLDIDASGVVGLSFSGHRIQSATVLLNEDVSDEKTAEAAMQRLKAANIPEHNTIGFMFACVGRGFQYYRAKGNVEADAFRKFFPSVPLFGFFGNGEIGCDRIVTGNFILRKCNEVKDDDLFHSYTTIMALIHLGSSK
UniProt Q9H4M3: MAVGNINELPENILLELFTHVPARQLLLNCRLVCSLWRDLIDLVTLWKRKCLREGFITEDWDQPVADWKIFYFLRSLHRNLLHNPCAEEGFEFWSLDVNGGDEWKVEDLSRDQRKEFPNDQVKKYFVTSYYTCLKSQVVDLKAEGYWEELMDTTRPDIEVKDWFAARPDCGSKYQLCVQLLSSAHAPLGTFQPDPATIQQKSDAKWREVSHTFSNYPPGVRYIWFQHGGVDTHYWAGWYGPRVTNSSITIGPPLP
UniProt Q5T0N5: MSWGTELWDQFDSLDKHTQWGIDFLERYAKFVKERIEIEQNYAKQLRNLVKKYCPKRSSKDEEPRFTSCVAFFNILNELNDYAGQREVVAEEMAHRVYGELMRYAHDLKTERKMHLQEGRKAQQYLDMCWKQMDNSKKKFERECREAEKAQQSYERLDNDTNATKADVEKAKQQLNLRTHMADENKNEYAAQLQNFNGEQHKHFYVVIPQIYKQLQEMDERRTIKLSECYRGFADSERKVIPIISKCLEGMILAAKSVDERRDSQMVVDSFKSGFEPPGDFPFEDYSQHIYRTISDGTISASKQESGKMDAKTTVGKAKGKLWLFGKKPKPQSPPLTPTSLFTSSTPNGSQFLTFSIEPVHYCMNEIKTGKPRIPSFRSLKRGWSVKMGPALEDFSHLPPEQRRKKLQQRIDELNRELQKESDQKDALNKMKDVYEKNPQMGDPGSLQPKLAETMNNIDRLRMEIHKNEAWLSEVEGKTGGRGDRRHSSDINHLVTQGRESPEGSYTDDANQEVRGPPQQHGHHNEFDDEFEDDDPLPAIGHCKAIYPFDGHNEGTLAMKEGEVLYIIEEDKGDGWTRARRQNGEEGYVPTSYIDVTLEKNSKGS

Key:
Assay in all cases: log2 fold change, soluble protein after heating vs DMSO (PISA); higher = thermal stabilisation; K562 lysate, 10 uM; active = over 0.2 and 3.5 SD of the protein, either way, in both replicates (recomputed)
[1] = compound: NCC(=O)Nc1ccc(-n2nc(C(F)(F)F)cc2-c2ccc3c(ccc4ccccc43)c2)cc1
Method in brief: (§1)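 The values are log-two fold changes in thermal stability compared with solvent controls and come from duplicates. They were obtained by TMTpro 16plex LC-MS/MS, with channel sums equalised, on the supernatant after 21,000xg for 90 min. That supernatant came from crude K562 extract at 1 mg/mL protein treated with 10 μM compound for 30 min, heated for 3 min across 48°C-58°C, pooled and brought to 0.5% NP-40 at 4°C.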

vorinostat = compound: O=C(CCCCCCC(=O)Nc1ccccc1)NO [vorinostat]
Method in brief: as §1

silmitasertib = compound: O=C(O)c1ccc2c(c1)nc(Nc1cccc(Cl)c1)c1ccncc12 [silmitasertib]
Method in brief: as §1

[2] = compound: O=C1NC(=O)C(c2cnc3ccccn23)=C1c1cn2c3c(cc(F)cc13)CN(C(=O)N1CCCCC1)CC2
Method in brief: as §1

entospletinib = compound: c1cn2cc(-c3ccc4cn[nH]c4c3)nc(Nc3ccc(N4CCOCC4)cc3)c2n1 [entospletinib]
Method in brief: as §1

Row | Target | log2 fold change [1] | log2 fold change (vorinostat) | log2 fold change (silmitasertib) | log2 fold change [2] | log2 fold change (entospletinib)
1 | FBXO6 (UniProt Q9NRD1) | inactive: -0.022 | inactive: 0.028 | inactive: -0.011 | inactive: 0.019 | inactive: -0.001
2 | FANCB (UniProt Q8NB91) | inactive: 0.023 | inactive: -0.153 | inactive: 0.091 | inactive: 0.055 | inactive: -0.016
3 | FBXO42 (UniProt Q6P3S6) | inactive: 0.132 | inactive: 0.214 | inactive: -0.012 | inactive: -0.006 | inactive: 0.058
4 | FLNA (UniProt H0Y5C6) | inactive: 0.14 | inactive: 0.123 | inactive: -0.039 | – | –
5 | FASN (UniProt P49327) | inactive: -0.02 | inactive: -0.037 | inactive: 0.021 | inactive: -0.003 | inactive: 0.035
6 | FAM98C (UniProt Q17RN3) | inactive: 0.033 | inactive: -0.11 | inactive: 0.235 | inactive: -0.073 | inactive: 0.081
7 | FLNC (UniProt Q14315) | inactive: 0.009 | inactive: 0.057 | inactive: -0.021 | inactive: 0.005 | inactive: 0.026
8 | FBXO22 (UniProt Q8NEZ5) | inactive: 0.014 | active: -0.477 | inactive: -0.022 | inactive: -0.018 | inactive: 0.014
9 | FBXO44 isoform 2 (UniProt Q9H4M3) | inactive: -0.075 | inactive: -0.213 | inactive: 0.188 | – | –
10 | FNBP1L (UniProt Q5T0N5) | inactive: 0.001 | active: -0.373 | inactive: 0.102 | inactive: -0.041 | inactive: 0.017
